# Measurements as given in the supplement of paper PMC4635364.
# Structures can show the parent of a compound that is named as a salt. The list shows a part of the results. This data set is noisy: repeats of one test often differ as much as different tests do.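 Human fetal ventral-midbrain neural progenitor line ReNCell VM, differentiated without mitogens. Images stained for doublecortin (early neurons) or tyrosine hydroxylase (dopaminergic neurons) were scored by blinded raters against untreated wells (0 = no change). Repeats and both raters were averaged, and compounds averaging 2 or higher were picked as hits for retesting.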
# How the values were obtained:
# [1] = tested on: ReNCell VM; test: neuronal differentiation score (DCX+ cell fraction vs untreated, manual image score) (score (-3 to 3)); higher = more neuronal differentiation; details: 2 uM, 2 weeks
# [2] = tested on: ReNCell VM; test: dopaminergic neuron differentiation score (TH+ cell fraction vs untreated, manual image score) (score (0 to 3)); higher = more TH+ dopaminergic neuron differentiation; details: 2 uM, 4 weeks, BDNF 10 ng/ml + GDNF 10 ng/ml
structure (smiles),measurement,setting,value
COc1ccc2c(c1)c(CC(=O)OCC(=O)O)c(C)n2C(=O)c1ccc(Cl)cc1 [Acemetacin],neuronal differentiation score,[1]; library: Prestwick,inactive: 0
same,dopaminergic neuron differentiation score,[2]; library: Prestwick,inactive: 0
Nc1nc(=O)c2nc(CNc3ccc(C(=O)N[C@@H](CCC(=O)O)C(=O)O)cc3)cnc2[nH]1,neuronal differentiation score,[1]; library: Spectrum,inactive: 0
same,dopaminergic neuron differentiation score,[2]; library: Spectrum,inactive: 0
CC(=O)Oc1ccccc1C(=O)Oc1ccccc1C(=O)O [Acetylsalicylsalicylic acid],neuronal differentiation score,[1]; library: Prestwick,inactive: 0
same,dopaminergic neuron differentiation score,[2]; library: Prestwick,inactive: 0
CC[C@H](C)[C@H]1O[C@]2(C=C[C@@H]1C)C[C@@H]1C[C@@H](C/C=C(\C)[C@@H](O[C@H]3C[C@H](OC)[C@@H](O[C@H]4C[C@H](OC)[C@@H](O)[C@H](C)O4)[C@H](C)O3)[C@@H](C)/C=C/C=C3\CO[C@@H]4[C@H](OC)C(C)=C[C@@H](C(=O)O1)[C@]34O)O2,neuronal differentiation score,[1]; library: Spectrum,inactive: 0
same,dopaminergic neuron differentiation score,[2]; library: Spectrum,inactive: 0
OCCOCCN1CCN(C2=Nc3ccccc3Sc3ccccc32)CC1 [Quetiapine],neuronal differentiation score,[1]; library: Prestwick,inactive: 0
same,dopaminergic neuron differentiation score,[2]; library: Prestwick,inactive: 0
"C/C=C1\C(=O)C[C@H]2[C@@H]3CCC4=CC(=O)CC[C@]4(C)[C@H]3CC[C@]12C [(Z)-pregna-4,17(20)-diene-3,16-dione]",neuronal differentiation score,[1]; library: Natural,inactive: -1
same,dopaminergic neuron differentiation score,[2]; library: Natural,inactive: 0
Cc1ccc(NC(=O)c2cccc(N(C)C)c2)cc1NC(=O)c1ccc(O)cc1,neuronal differentiation score,[1]; library: Tocriscreen,inactive: 0
same,dopaminergic neuron differentiation score,[2]; library: Tocriscreen,inactive: 0
CC(=O)OCC(=O)[C@@]1(OC(C)=O)[C@@H](C)C[C@H]2[C@@H]3C[C@H](F)C4=CC(=O)C=C[C@]4(C)[C@@]3(F)[C@@H](O)C[C@@]21C [Diflorasone Diacetate],neuronal differentiation score,[1]; library: Prestwick,inactive: 0
same,dopaminergic neuron differentiation score,[2]; library: Prestwick,inactive: 0
O=c1[nH]c(=O)n([C@H]2C[C@H](O)[C@@H](CO)O2)cc1I,neuronal differentiation score,[1]; library: Spectrum,inactive: 0
same,dopaminergic neuron differentiation score,[2]; library: Spectrum,inactive: 0
CO[C@H]1[C@H](O)[C@@H](O)[C@H](O)[C@H](O)[C@H]1O,neuronal differentiation score,[1]; library: Spectrum,inactive: 0
same,dopaminergic neuron differentiation score,[2]; library: Spectrum,inactive: 0
C[C@@H](c1ncncc1F)[C@](O)(Cn1cncn1)c1ccc(F)cc1F [Voriconazole],neuronal differentiation score,[1]; library: Prestwick,inactive: 0
same,dopaminergic neuron differentiation score,[2]; library: Prestwick,inactive: 0
NC[C@H]1CC[C@H](C(=O)O)CC1 [Tranexamic acid],neuronal differentiation score,[1]; library: Prestwick,inactive: 0
same,dopaminergic neuron differentiation score,[2]; library: Prestwick,inactive: 0
OCc1c[nH]c2ccccc12,neuronal differentiation score,[1]; library: Spectrum,inactive: 0
same,dopaminergic neuron differentiation score,[2]; library: Spectrum,inactive: 0
CC(=O)OCC(=O)[C@@]12OC3(CCCC3)O[C@@H]1C[C@H]1[C@@H]3CCC4=CC(=O)C=C[C@]4(C)[C@@]3(F)[C@@H](O)C[C@@]12C [Amcinonide],neuronal differentiation score,[1]; library: Prestwick,inactive: 0
same,dopaminergic neuron differentiation score,[2]; library: Prestwick,inactive: 0
CC1=C(/C=C/C(C)=C/C=C/C(C)=C/C=C/C=C(C)/C=C/C=C(C)/C=C/C2=C(C)CCCC2(C)C)C(C)(C)CCC1 [beta-CAROTENE],neuronal differentiation score,[1]; library: Spectrum,inactive: 1
same,dopaminergic neuron differentiation score,[2]; library: Spectrum,inactive: 0
CCCCC(CC)CN1CN(CC(CC)CCCC)CC(C)(N)C1 (stereo not drawn),neuronal differentiation score,[1]; library: Spectrum,inactive: 0
same,dopaminergic neuron differentiation score,[2]; library: Spectrum,inactive: 0
C[C@@H]1O[C@@H](OC[C@H]2O[C@@H](Oc3c(-c4ccc(O)c(O)c4)oc4cc(O)cc(O)c4c3=O)[C@H](O)[C@@H](O)[C@@H]2O)[C@H](O)[C@H](O)[C@H]1O,neuronal differentiation score,[1]; library: Spectrum,inactive: 0
same,dopaminergic neuron differentiation score,[2]; library: Spectrum,inactive: 0
CN(C)C(=O)C(=O)c1cn(C)c2cc(Cl)c(C(=O)N3CCC(Cc4ccc(F)cc4)CC3)cc12,neuronal differentiation score,[1]; library: Tocriscreen,inactive: 0
same,dopaminergic neuron differentiation score,[2]; library: Tocriscreen,inactive: 0
NC1(C(=O)O)CCCC1,neuronal differentiation score,[1]; library: Spectrum,inactive: 0
same,dopaminergic neuron differentiation score,[2]; library: Spectrum,inactive: 0
CCOC(=O)O[C@]1(C(=O)COC(=O)CC)CC[C@H]2[C@@H]3CCC4=CC(=O)C=C[C@]4(C)[C@H]3[C@@H](O)C[C@@]21C [Prednicarbate],neuronal differentiation score,[1]; library: Prestwick,inactive: 0
same,dopaminergic neuron differentiation score,[2]; library: Prestwick,inactive: 0
COc1ccc(-c2ccc3cc(C(=O)O)ccc3c2)cc1C12CC3CC(CC(C3)C1)C2,neuronal differentiation score,[1]; library: Spectrum,inactive: -1
same,dopaminergic neuron differentiation score,[2]; library: Spectrum,inactive: 0
CC1(C)NC(=O)N(c2ccc([N+](=O)[O-])c(C(F)(F)F)c2)C1=O,neuronal differentiation score,[1]; library: Spectrum,inactive: 0
same,dopaminergic neuron differentiation score,[2]; library: Spectrum,inactive: 0
COc1ccc2cc3n(c(=O)c2c1OC)CCc1cc2c(cc1-3)OCO2 [Berlambine],neuronal differentiation score,[1]; library: Phytochemical,inactive: 0
same,dopaminergic neuron differentiation score,[2]; library: Phytochemical,inactive: 0
O=C1C(CC[S+]([O-])c2ccccc2)C(=O)N(c2ccccc2)N1c1ccccc1 (stereo not drawn) [Sulfinpyrazone],neuronal differentiation score,[1]; library: Prestwick,inactive: 0
same,dopaminergic neuron differentiation score,[2]; library: Prestwick,inactive: 0
CC1CS(=O)(=O)CCN1/N=C/c1ccc([N+](=O)[O-])o1 (stereo not drawn) [Nifurtimox],neuronal differentiation score,[1]; library: Prestwick,inactive: 0
same,dopaminergic neuron differentiation score,[2]; library: Prestwick,inactive: 0
Cc1c(N(C)CS(=O)(=O)O)c(=O)n(-c2ccccc2)n1C [Dipyrone],neuronal differentiation score,[1]; library: Prestwick,inactive: 0
same,dopaminergic neuron differentiation score,[2]; library: Prestwick,inactive: 0
CCCCCCC[N+](CC)(CC)CCCCc1ccc(Cl)cc1 [Clofilium tosylate],neuronal differentiation score,[1]; library: Prestwick,inactive: 0
same,dopaminergic neuron differentiation score,[2]; library: Prestwick,inactive: 0
CCCCCC(O)CCCC(=O)O (stereo not drawn) [5-hydroxydecanoic acid sodium],neuronal differentiation score,[1]; library: LOPAC,inactive: 0
same,dopaminergic neuron differentiation score,[2]; library: LOPAC,inactive: 0
COc1ccc(C(=O)N(O)c2ccccc2)cc1 [n-hydroxy-4-methoxy-n-phenylbenzamide],neuronal differentiation score,[1]; library: Natural,inactive: 0
same,dopaminergic neuron differentiation score,[2]; library: Natural,inactive: 0
C[N+](C)(C)CCOP(=O)(O)OP(=O)([O-])OC[C@H]1O[C@@H](n2ccc(N)nc2=O)[C@H](O)[C@@H]1O,neuronal differentiation score,[1]; library: Spectrum,inactive: 1
same,dopaminergic neuron differentiation score,[2]; library: Spectrum,inactive: 0
C#CCCCCCCCCCCCc1ccco1,neuronal differentiation score,[1]; library: Spectrum,inactive: 0
same,dopaminergic neuron differentiation score,[2]; library: Spectrum,inactive: 0
OCCOCCN1CCN(C(c2ccccc2)c2ccc(Cl)cc2)CC1 (stereo not drawn) [Hydroxyzine dihydrochloride],neuronal differentiation score,[1]; library: Prestwick,inactive: 0
same,dopaminergic neuron differentiation score,[2]; library: Prestwick,inactive: 0
CCN(CC)CCOC(=O)C(Cc1cccc2ccccc12)CC1CCCO1 (stereo not drawn),neuronal differentiation score,[1]; library: Spectrum,inactive: 0
same,dopaminergic neuron differentiation score,[2]; library: Spectrum,inactive: 0
c1ccc2c(c1)CN1CCCC1=N2 [Desoxypeganine Hydrochloride],neuronal differentiation score,[1]; library: Phytochemical,inactive: 0
same,dopaminergic neuron differentiation score,[2]; library: Phytochemical,inactive: 0

# 18 entries from above, with tabs:
structure (smiles)	measurement	setting	value
CC(=O)OCC(=O)[C@@]12OC3(CCCC3)O[C@@H]1C[C@H]1[C@@H]3CCC4=CC(=O)C=C[C@]4(C)[C@@]3(F)[C@@H](O)C[C@@]12C [Amcinonide]	neuronal differentiation score	[1]; library: Prestwick	inactive: 0
same	dopaminergic neuron differentiation score	[2]; library: Prestwick	inactive: 0
CC1=C(/C=C/C(C)=C/C=C/C(C)=C/C=C/C=C(C)/C=C/C=C(C)/C=C/C2=C(C)CCCC2(C)C)C(C)(C)CCC1 [beta-CAROTENE]	neuronal differentiation score	[1]; library: Spectrum	inactive: 1
same	dopaminergic neuron differentiation score	[2]; library: Spectrum	inactive: 0
CCCCC(CC)CN1CN(CC(CC)CCCC)CC(C)(N)C1 (stereo not drawn)	neuronal differentiation score	[1]; library: Spectrum	inactive: 0
same	dopaminergic neuron differentiation score	[2]; library: Spectrum	inactive: 0
C[C@@H]1O[C@@H](OC[C@H]2O[C@@H](Oc3c(-c4ccc(O)c(O)c4)oc4cc(O)cc(O)c4c3=O)[C@H](O)[C@@H](O)[C@@H]2O)[C@H](O)[C@H](O)[C@H]1O	neuronal differentiation score	[1]; library: Spectrum	inactive: 0
same	dopaminergic neuron differentiation score	[2]; library: Spectrum	inactive: 0
CN(C)C(=O)C(=O)c1cn(C)c2cc(Cl)c(C(=O)N3CCC(Cc4ccc(F)cc4)CC3)cc12	neuronal differentiation score	[1]; library: Tocriscreen	inactive: 0
same	dopaminergic neuron differentiation score	[2]; library: Tocriscreen	inactive: 0
NC1(C(=O)O)CCCC1	neuronal differentiation score	[1]; library: Spectrum	inactive: 0
same	dopaminergic neuron differentiation score	[2]; library: Spectrum	inactive: 0
CCOC(=O)O[C@]1(C(=O)COC(=O)CC)CC[C@H]2[C@@H]3CCC4=CC(=O)C=C[C@]4(C)[C@H]3[C@@H](O)C[C@@]21C [Prednicarbate]	neuronal differentiation score	[1]; library: Prestwick	inactive: 0
same	dopaminergic neuron differentiation score	[2]; library: Prestwick	inactive: 0
COc1ccc(-c2ccc3cc(C(=O)O)ccc3c2)cc1C12CC3CC(CC(C3)C1)C2	neuronal differentiation score	[1]; library: Spectrum	inactive: -1
same	dopaminergic neuron differentiation score	[2]; library: Spectrum	inactive: 0
CC1(C)NC(=O)N(c2ccc([N+](=O)[O-])c(C(F)(F)F)c2)C1=O	neuronal differentiation score	[1]; library: Spectrum	inactive: 0
same	dopaminergic neuron differentiation score	[2]; library: Spectrum	inactive: 0
